# Reference: patent US9938321B2, “Cyclic peptoid oligomers, pharmaceutical compositions and methods of using the same” (priority 2013, dated 2018)
# Non-standard residues stand in square brackets, D forms with d. Residues, ends and D or L forms follow the SMILES beside them. Nphe = O=C(O)CNCc1ccccc1; Orn = NCCC[C@H](N)C(=O)O; Nlys = NCCCCNCC(=O)O
# Tested on: HeLa cells
# Details: HeLa cells versus MRSA USA300
# Protocol: As an additional parameter of selectivity, the inventors also evaluated the compounds for toxicity towards nucleated mammalian cells (FIG. 3). The compounds were incubated with HeLa cells for 1 hr at 37° C. and cell viability was determined by a dye-based assay.
# HeLa cells (˜[…] cells per well) were seeded in a tissue culture-treated 96-well plate (Corning). The cells were monitored for confluence via light microscopy prior to the addition of compounds to a final volume of 100 μL/well. Following incubation with the compounds (for 1 hour or 24 hours at 37° C.), Cell Titer (Promega) was added to each well and the assay was allowed to develop for 1 hour at 37° C. Absorbance was then read at 490 nm using a Wallac Envision plate reader. The experiments were always conducted in triplicate with water or ethanol as the negative control. Percent cell viability (% CV) was calculated as the ratio of mean absorbance of the test wells and the mean absorbance of the water or ethanol treated wells.
# Following seeding in DMEM supplemented with 10% v/v FBS (fetal bovine serum) in tissue-culture plates (Corning), adherent HeLa cells were trypsinized, washed in PBS, and re-suspended in medium at a density of 1×10^6 cells/mL. A 100 μL cell suspension was seeded onto a 96-well plate and cultured for 25 hrs. Subsequently, cells were exposed to the different compounds for 1 and 24 hrs and the cell viability evaluated using CellTiter 96® AQueous Non-Radioactive Cell Proliferation Assay (Promega).
row,SMILES,TI (therapeutic index) = LC50/MIC
1,"N=C(N)NCCCCN1CC(=O)N(CC(c2ccccc2)c2ccccc2)CC(=O)N(CCCCNC(=N)N)CC(=O)N(CC(c2ccccc2)c2ccccc2)CC(=O)N(CCCCNC(=N)N)CC(=O)N(CC(c2ccccc2)c2ccccc2)CC(=O)N(CCCCNC(=N)N)CC(=O)N(CC(c2ccccc2)c2ccccc2)CC(=O)N(CCCCNC(=N)N)CC(=O)N(CC(c2ccccc2)c2ccccc2)CC1=O [Compound 31, C(NgbNdp)5]",>1
2,"Cc1cc(C)cc(CN2CC(=O)N(CCCN)CC(=O)N(Cc3cc(C)cc(C)c3)CC(=O)N(CCCN)CC(=O)N(Cc3cc(C)cc(C)c3)CC(=O)N(CCCN)CC2=O)c1 [Compound C124, C(NapNdmb)3]",45
3,"NCCCCN1CC(=O)N(Cc2ccccc2)CC(=O)N(CCCCN)CC(=O)N(Cc2ccccc2)CC(=O)N(CCCCN)CC(=O)N(Cc2ccccc2)CC1=O [Compound 30, C(NabNpm)3] (cyclo([Nlys][Nphe][Nlys][Nphe][Nlys][Nphe]))",>1
4,"CC(C)C[C@@H]1NC(=O)[C@H](CCCN)NC(=O)[C@H](C(C)C)NC(=O)[C@@H]2CCCN2C(=O)[C@@H](Cc2ccccc2)NC(=O)[C@H](CC(C)C)NC(=O)[C@H](CCCN)NC(=O)[C@H](C(C)C)NC(=O)[C@@H]2CCCN2C(=O)[C@@H](Cc2ccccc2)NC1=O [Gramicidin S, reference compound] (cyclo(V[Orn]L[dF]PV[Orn]L[dF]P))",1
